PubChem BioAssay AID504808 – Drosophila RNAi Screening Center | 2011
Assay: 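Chromatin factors that keep E2F targets switched off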 (primary screen). System: Drosophila S2 cells. Reagents: long dsRNA against Drosophila genes. Detection: 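Firefly luciferase driven by E2F sites, normalised to Renilla luciferase on the same minimal promoter, measured by plate reader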. Reading the numbers: E2F firefly: higher = more E2F reporter activity; Renilla normaliser: higher = more normaliser reporter signal. Rule for the call: 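a knock-down counted as active when the firefly/Renilla E2F signal rose above 50%, a threshold chosen arbitrarily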.
The screen tested about 21,000 reagents; this is a random part of those with a known target gene and a result. In the full data, 18 (0.084%) are marked active. 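Raw counts without plate normalisation, one of two replicates; the ratio scores behind the calls were not deposited.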 Names joined by + are all predicted targets of the reagent. Reagent sequences are not shown. Not given: the amount of reagent, the time to read-out.

gene | dsRNA | E2F firefly, rep 1 | Renilla normaliser, rep 1 | call
Dbct | DRSC19951 | 7790 | 768 | inactive
CG14273 | DRSC02377 | 1.34e5 | 4897 | inactive
Cdc6 | DRSC10563 | 1.03e5 | 156 | active
Edg91 | DRSC16657 | 88344 | 4935 | inactive
Polr1H | DRSC14594 | 69790 | 3704 | inactive
CG33635 | DRSC00006 | 1.33e5 | 5250 | inactive
Pfdn1 | DRSC02325 | 1.55e5 | 5146 | inactive
CG2926 | DRSC12321 | 72422 | 3671 | inactive
RpL8 | DRSC08532 | 65383 | 4443 | inactive
RpL8 | DRSC08695 | 61110 | 4449 | inactive
CG10996 | DRSC19363 | 1.39e5 | 4854 | inactive
ATPsyngamma | DRSC14094 | 1.08e5 | 6610 | inactive
CG12009 | DRSC08217 | 73041 | 4194 | inactive
CG15412 | DRSC00427 | 1.68e5 | 5210 | inactive
Nrx-IV | DRSC11238 | 74491 | 3636 | inactive
TwdlR | DRSC14736 | 93220 | 5109 | inactive
CG1143 | DRSC08188 | 87553 | 3830 | inactive
CG11099 | DRSC06034 | 1.55e5 | 4852 | inactive
CG33096 | DRSC14440 | 63261 | 2852 | inactive
jhamt | DRSC01985 | 64025 | 3121 | inactive
Rh6 | DRSC16823 | 1.13e5 | 6877 | inactive
CG13131 | DRSC02227 | 1.56e5 | 5752 | inactive
EAChm | DRSC10010 | 1.46e5 | 7783 | inactive
Nep7 | DRSC15830 | 1.23e5 | 6536 | inactive
Obp50e | DRSC06434 | 1.06e5 | 4606 | inactive
CG4629 | DRSC00659 | 1.69e5 | 5915 | inactive
CG31296 | DRSC13092 | 88305 | 3208 | inactive
PIG-O | DRSC06123 | 64305 | 3383 | inactive
CG5421 | DRSC02858 | 99582 | 4463 | inactive
Ada1-1 + Ada1-2 | DRSC01220 | 1.13e5 | 5790 | inactive
Ada1-1 + Ada1-2 | DRSC01222 | 1.28e5 | 6831 | inactive

Copied from the list:
Value for TwdlR [DRSC14736] under “Renilla normaliser, rep 1”: 5109
Value of CG10996 [DRSC19363] in “call”: inactive
Entry of CG33635 [DRSC00006] in “Renilla normaliser, rep 1”: 5250
For “E2F firefly, rep 1”, CG11099 [DRSC06034] has 1.55e5
For “call”, CG12009 [DRSC08217] has inactive
For “call”, ATPsyngamma [DRSC14094] shows inactive

The results go on:
gene | dsRNA | E2F firefly, rep 1 | Renilla normaliser, rep 1 | call
TFAM | DRSC15552 | 60340 | 3238 | inactive
CG14687 | DRSC14910 | 1.50e5 | 7079 | inactive
Mcm5 | DRSC16735 | 1.58e5 | 6879 | inactive
CG1494 | DRSC20509 | 1.35e5 | 7088 | inactive
Teh1 | DRSC14544 | 1.30e5 | 5232 | inactive
S-Lap5 | DRSC06732 | 97798 | 4322 | inactive
Hakai | DRSC02031 | 70078 | 3161 | inactive
CG40245 (retired record) | DRSC21012 | 88497 | 3521 | inactive
serp | DRSC11035 | 1.36e5 | 7566 | inactive
serp | DRSC11036 | 1.43e5 | 7185 | inactive
alphaTub84B | DRSC12622 | 1.11e5 | 6445 | inactive
Aldh | DRSC02717 | 1.58e5 | 5465 | inactive
CG7135 | DRSC20026 | 1.47e5 | 6347 | inactive
beta-Spec | DRSC20311 | 2.00e5 | 14547 | inactive
CG6006 | DRSC13137 | 86000 | 2607 | inactive
CG6006 | DRSC15946 | 76923 | 4205 | inactive
Wbp2 | DRSC09821 | 79896 | 3108 | inactive
Jon66Cii | DRSC10778 | 1.03e5 | 4157 | inactive
Dg | DRSC06718 | 1.51e5 | 5785 | inactive
Task7 | DRSC16477 | 1.47e5 | 6556 | inactive
CG11089 + CG31381 | DRSC13690 | 81660 | 2829 | inactive
CG11089 + CG31381 | DRSC14290 | 72872 | 3221 | inactive
CG17059 | DRSC06654 | 1.01e5 | 4137 | inactive
Men | DRSC12924 | 75141 | 2522 | inactive
Men | DRSC16738 | 1.31e5 | 6089 | inactive
CG18537 | DRSC06764 | 1.39e5 | 5106 | inactive
CG9689 | DRSC18440 | 8038 | 700 | inactive
Best1 | DRSC16909 | 1.52e5 | 6645 | inactive
Rai1 | DRSC20157 | 1.54e5 | 6558 | inactive
CG33128 | DRSC00294 | 1.68e5 | 5618 | inactive
Peritrophin-A | DRSC20570 | 1.64e5 | 6160 | inactive
robl | DRSC07674 | 1.45e5 | 5627 | inactive
CG3942 | DRSC15525 | 1.72e5 | 6888 | inactive
lncRNA:sphinx + ATPsynF | DRSC17191 | 88098 | 2699 | inactive
sro | DRSC14469 | 1.53e5 | 6616 | inactive
Lint-1 | DRSC19822 | 7618 | 808 | inactive
CG17593 | DRSC00504 | 1.55e5 | 5221 | inactive
CG3841 | DRSC02730 | 1.53e5 | 5309 | inactive
tkv | DRSC00860 | 1.24e5 | 4360 | inactive
tkv | DRSC03623 | 91965 | 4083 | inactive
CG13144 | DRSC02241 | 1.61e5 | 5460 | inactive
CG15431 | DRSC00446 | 1.42e5 | 5447 | inactive
Gdi | DRSC03330 | 93656 | 3962 | inactive
Rassf | DRSC15612 | 63304 | 3263 | inactive
Orc1 | DRSC07496 | 59471 | 3550 | inactive
edin | DRSC09488 | 1.41e5 | 3939 | inactive
dgrn | DRSC12154 | 70263 | 3217 | inactive
ave | DRSC05502 | 1.26e5 | 5221 | inactive
Alp4 | DRSC14116 | 1.25e5 | 6847 | inactive
CG10352 | DRSC19353 | 1.23e5 | 5968 | inactive
CG13404 | DRSC19536 | 1.56e5 | 6329 | inactive
CG7218 | DRSC16216 | 75547 | 3060 | inactive
CG15450 | DRSC20522 | 1.30e5 | 6805 | inactive
